{
  "sequences": {"note": "By UniProt entry, the sequences of proteins in these tests, tags left out.", "UniProt Q17551": "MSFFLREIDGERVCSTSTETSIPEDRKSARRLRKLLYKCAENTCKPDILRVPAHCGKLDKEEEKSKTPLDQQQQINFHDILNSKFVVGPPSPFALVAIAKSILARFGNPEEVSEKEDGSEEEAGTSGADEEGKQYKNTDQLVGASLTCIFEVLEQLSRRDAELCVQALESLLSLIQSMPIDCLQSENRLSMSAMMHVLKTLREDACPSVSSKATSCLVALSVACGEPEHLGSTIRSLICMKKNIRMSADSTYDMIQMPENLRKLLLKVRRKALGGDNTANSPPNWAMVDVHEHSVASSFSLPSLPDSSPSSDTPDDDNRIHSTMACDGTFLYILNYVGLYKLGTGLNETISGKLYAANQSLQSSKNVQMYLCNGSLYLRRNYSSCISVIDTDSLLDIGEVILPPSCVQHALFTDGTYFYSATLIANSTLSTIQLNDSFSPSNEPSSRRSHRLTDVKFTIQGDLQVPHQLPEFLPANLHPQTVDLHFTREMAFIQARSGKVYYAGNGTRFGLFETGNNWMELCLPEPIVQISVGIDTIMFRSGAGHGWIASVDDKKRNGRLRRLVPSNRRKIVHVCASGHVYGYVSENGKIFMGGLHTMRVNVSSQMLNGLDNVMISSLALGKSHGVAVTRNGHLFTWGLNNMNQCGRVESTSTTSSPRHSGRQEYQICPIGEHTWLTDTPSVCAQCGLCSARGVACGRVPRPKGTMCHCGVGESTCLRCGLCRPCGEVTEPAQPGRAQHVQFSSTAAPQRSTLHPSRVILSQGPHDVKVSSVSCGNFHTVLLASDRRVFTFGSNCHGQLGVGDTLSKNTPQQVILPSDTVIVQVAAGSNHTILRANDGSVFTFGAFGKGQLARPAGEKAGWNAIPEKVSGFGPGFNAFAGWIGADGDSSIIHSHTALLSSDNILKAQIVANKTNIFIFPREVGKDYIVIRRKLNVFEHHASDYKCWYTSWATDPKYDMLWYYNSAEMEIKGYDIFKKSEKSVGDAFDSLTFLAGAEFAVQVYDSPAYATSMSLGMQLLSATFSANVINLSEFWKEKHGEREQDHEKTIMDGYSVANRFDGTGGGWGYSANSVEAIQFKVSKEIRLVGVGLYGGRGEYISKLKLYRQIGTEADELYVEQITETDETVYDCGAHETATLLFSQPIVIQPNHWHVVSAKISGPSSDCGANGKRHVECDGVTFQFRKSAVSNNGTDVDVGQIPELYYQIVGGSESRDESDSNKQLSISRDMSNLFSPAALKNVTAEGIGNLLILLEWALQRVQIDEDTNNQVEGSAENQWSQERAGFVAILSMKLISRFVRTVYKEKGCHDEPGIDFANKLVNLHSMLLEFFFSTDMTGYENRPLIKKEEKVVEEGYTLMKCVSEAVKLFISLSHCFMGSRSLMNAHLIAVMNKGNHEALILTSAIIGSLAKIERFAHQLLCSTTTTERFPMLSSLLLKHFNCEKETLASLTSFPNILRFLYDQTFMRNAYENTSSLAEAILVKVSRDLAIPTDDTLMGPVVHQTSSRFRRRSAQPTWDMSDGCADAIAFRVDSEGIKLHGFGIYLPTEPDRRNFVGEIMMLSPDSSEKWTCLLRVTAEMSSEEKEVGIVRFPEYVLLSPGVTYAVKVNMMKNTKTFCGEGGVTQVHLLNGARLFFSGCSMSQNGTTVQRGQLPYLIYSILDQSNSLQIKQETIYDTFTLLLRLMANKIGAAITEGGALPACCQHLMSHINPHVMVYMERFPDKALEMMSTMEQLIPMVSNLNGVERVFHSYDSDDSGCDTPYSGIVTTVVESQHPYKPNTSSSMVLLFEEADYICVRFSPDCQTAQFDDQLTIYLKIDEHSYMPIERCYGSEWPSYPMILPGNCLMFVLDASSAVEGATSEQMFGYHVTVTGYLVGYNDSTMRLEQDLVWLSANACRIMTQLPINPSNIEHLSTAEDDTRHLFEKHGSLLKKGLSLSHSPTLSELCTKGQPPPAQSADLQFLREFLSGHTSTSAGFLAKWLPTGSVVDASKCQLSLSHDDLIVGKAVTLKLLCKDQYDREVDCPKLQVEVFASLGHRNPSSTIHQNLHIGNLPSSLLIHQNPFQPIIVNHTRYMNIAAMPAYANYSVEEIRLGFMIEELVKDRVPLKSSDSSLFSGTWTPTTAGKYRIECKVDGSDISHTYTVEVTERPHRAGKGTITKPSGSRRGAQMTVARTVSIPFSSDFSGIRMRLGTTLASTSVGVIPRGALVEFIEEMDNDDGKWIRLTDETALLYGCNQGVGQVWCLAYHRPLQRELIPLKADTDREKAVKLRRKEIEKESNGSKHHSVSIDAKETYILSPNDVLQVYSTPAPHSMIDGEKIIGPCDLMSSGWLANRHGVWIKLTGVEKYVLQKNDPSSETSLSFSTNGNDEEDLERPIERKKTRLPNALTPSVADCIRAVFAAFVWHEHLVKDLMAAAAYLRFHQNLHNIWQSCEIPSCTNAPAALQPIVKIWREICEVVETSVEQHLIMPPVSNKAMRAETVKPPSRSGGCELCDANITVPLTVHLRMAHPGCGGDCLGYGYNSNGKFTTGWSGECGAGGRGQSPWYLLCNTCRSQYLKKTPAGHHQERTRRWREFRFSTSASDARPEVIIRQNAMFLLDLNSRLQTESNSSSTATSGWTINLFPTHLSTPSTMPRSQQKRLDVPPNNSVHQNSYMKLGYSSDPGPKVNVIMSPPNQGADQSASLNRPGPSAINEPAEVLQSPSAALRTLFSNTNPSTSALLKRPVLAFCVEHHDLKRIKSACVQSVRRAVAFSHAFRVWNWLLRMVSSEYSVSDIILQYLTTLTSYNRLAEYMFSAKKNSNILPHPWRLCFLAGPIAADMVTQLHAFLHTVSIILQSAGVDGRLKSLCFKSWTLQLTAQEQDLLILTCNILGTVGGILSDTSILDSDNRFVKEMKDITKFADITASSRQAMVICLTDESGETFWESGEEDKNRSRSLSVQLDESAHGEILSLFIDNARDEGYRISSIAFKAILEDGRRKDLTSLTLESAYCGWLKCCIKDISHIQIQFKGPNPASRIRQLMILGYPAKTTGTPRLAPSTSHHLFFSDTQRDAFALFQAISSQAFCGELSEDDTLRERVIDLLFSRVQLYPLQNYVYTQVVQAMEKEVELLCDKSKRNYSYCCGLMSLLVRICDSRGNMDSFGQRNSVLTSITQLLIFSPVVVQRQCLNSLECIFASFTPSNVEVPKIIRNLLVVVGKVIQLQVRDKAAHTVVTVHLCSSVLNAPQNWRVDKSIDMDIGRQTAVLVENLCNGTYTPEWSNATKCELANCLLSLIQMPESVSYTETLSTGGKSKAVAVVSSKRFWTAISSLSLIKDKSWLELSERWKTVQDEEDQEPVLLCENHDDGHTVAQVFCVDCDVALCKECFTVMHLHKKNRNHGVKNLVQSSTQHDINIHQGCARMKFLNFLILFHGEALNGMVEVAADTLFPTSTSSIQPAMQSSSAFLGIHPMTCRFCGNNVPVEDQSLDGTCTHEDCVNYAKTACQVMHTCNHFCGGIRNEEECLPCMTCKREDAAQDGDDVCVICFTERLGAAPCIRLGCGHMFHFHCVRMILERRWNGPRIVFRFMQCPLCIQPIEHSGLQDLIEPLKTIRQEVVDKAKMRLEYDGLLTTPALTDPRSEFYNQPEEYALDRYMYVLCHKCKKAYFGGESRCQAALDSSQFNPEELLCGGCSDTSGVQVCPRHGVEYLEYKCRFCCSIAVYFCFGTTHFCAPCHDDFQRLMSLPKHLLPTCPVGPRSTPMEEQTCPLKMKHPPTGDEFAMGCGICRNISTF"},
  "source": "paper PMC4091705",
  "target": "Regulator of Presynaptic Morphology 1 (RPM-1) fused with Green Fluorescent Protein (C. elegans) (UniProt Q17551)",
  "assay": "co-IP; whole worm lysates of transgenic animals (juIs58), 0.1% NP-40 lysis buffer, 40 mg total protein extract; RPM-1::GFP precipitated with mouse monoclonal anti-GFP (3E6) and protein G agarose; blot with anti-ANC-1 polyclonal antibodies",
  "note": "No constants are given. Whether binding was seen depends on the method and setting. Binding seen in cells or lysates may run through a third protein. Some binding calls cover weakened binding; strength is not graded here.",
  "data": [
    {"substance": "abnormal nuclear Anchorage 1 (ANC-1) (from UniProt Q9N4M4 1-8545)", "values": [
      {"measurement": "binding", "result": "binds"}
    ]}
  ]
}
